# Results from US20060204993A1, “Methods and compositions for modulating CHK2 pathways and methods for screening for same” (priority 2005, published 2006).
# At least one structure is not confirmed: it was looked up by name or label, or the drawing left a doubt.
# Experiments:
# [1] = system: DLD1-Chk2 cells; experiment: Apoptosis and mitosis markers (Annexin-V, Pancaspase, phospho-Histone H3) and Z-VAD rescue in tet-induced cells; type: cell-based, human
# Method: FIG. 2A is a graph showing the DNA contents of cells as measured by flow cytometry (upper panel) and the percentages of Annexin-V-positive cells and Pancaspase-positive cells determined by flow cytometric analysis (bottom panels). FIG. 2B is a photograph of fluorescent microscopy showing DLD1-tet-Chk2# 17 cells cultured in the presence or absence of tetracycline following staining with DePsipher Dye (Trevigen) and monitoring the intensity of the monomer ([…]) and aggregates ([…]) of DePsipher. FIG. 2C is a photograph of immunoblots showing DLD1-tet-Chk2 #17 cell lysates following tetracycline treatment. Lysates were prepared and subjected to immunoblotting with the antibodies indicated on the left. FIG. 2D is a series of graphs of flow cytometric analysis showing the DNA content, caspase activity and percentages of DLD1-tet-Chk2#17 cells undergoing apoptosis following treated with Z-VAD- or mock-treated (None) and cultured in the presence (+tet) or absence (−tet) of tetracycline for six days.
# To investigate the effect of Chk2 expression on cell cycle progression, the cell cycle profiles of DLD1-Chk2 clones (#17 and #22) were analyzed after Chk2 induction by addition of tetracycline. […]
# [2] = system: DLD1-Chk2 xenografted human colon cancer; experiment: Xenograft tumor growth inhibition, tetracycline in drinking water; type: in vivo, nude mice
# [3] = system: DLD1-Chk2 (clone#17 and #22) cells; experiment: MTT and colony formation assays, tet-on Chk2 cells; type: cell-based, human; conditions: increasing concentrations of tetracycline
# [4] = system: DLD1-Control cells; experiment: MTT and colony formation assays, vector control cells; type: cell-based, human; conditions: increasing concentrations of tetracycline
smiles,measurement,setting,value
CN(C)[C@@H]1C(O)=C(C(N)=O)C(=O)[C@@]2(O)C(O)=C3C(=O)c4c(O)cccc4[C@@](C)(O)[C@H]3C[C@@H]12 [tetracycline],numbers of Annexin-V-positive and Pancaspase-positive cells,[1]; after 2 to 3 days of Chk2 induction,increased significantly
same,phospho-Histone H3 serine 10 staining (mitotic cells),[1]; tetracycline-treated DLD1-Chk2 cells,no increase
same,tumor growth,"[2]; tetracycline 1 mg per ml in drinking water from cell inoculation, P=0.019",nearly completely suppressed the growth
same,growth of established tumors,[2]; tetracycline added when tumors reached 100 mm^3 or 300 mm^3,nearly completely suppressed the growth
same,cell proliferation (MTT and colony formation),[3],suppress cell proliferation
same,cell growth (MTT and colony formation),[4],not affected
